This is an account of results in publication PMC9484707.

The chains behind the UniProt entries cited, without tags or fusion partners. Residues count along the entry.
UniProt A6QG59, residues 30-165: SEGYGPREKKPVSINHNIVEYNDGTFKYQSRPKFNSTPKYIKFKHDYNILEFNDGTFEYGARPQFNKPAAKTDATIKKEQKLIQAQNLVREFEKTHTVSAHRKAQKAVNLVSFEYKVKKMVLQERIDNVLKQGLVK
UniProt Q9Y508: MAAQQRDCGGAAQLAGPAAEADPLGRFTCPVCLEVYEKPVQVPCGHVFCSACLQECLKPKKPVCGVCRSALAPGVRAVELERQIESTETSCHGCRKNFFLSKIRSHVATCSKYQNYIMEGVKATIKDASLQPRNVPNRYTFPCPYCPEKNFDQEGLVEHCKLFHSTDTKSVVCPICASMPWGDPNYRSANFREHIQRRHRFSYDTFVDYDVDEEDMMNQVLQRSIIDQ

The target in this assay is extracellular fibrinogen-binding protein (Efb), overexpressed in HEK293T cells (Staphylococcus aureus) (UniProt A6QG59). The experiment in a line: affinity purification with mass spectrometry; immunoprecipitated overexpressed Efb from HEK293T cells; MS/MS on Q Exactive Plus coupled to UPLC.

No constants are given. Whether binding was seen depends on the method and setting. Binding seen in cells or lysates may run through a third protein. Here binding means that the protein was enriched with, or labelled near, the bait; the list need not be complete.

For the substance “RNF114, endogenous in HEK293T cells (from UniProt Q9Y508 1-228) (enzyme)”, the binding entry is “binds”.
